Experimental findings from publication PMC12455829 are described below.

Protein sequences, listed by entry. Tags and fused reporters are not part of them.
UniProt P51532: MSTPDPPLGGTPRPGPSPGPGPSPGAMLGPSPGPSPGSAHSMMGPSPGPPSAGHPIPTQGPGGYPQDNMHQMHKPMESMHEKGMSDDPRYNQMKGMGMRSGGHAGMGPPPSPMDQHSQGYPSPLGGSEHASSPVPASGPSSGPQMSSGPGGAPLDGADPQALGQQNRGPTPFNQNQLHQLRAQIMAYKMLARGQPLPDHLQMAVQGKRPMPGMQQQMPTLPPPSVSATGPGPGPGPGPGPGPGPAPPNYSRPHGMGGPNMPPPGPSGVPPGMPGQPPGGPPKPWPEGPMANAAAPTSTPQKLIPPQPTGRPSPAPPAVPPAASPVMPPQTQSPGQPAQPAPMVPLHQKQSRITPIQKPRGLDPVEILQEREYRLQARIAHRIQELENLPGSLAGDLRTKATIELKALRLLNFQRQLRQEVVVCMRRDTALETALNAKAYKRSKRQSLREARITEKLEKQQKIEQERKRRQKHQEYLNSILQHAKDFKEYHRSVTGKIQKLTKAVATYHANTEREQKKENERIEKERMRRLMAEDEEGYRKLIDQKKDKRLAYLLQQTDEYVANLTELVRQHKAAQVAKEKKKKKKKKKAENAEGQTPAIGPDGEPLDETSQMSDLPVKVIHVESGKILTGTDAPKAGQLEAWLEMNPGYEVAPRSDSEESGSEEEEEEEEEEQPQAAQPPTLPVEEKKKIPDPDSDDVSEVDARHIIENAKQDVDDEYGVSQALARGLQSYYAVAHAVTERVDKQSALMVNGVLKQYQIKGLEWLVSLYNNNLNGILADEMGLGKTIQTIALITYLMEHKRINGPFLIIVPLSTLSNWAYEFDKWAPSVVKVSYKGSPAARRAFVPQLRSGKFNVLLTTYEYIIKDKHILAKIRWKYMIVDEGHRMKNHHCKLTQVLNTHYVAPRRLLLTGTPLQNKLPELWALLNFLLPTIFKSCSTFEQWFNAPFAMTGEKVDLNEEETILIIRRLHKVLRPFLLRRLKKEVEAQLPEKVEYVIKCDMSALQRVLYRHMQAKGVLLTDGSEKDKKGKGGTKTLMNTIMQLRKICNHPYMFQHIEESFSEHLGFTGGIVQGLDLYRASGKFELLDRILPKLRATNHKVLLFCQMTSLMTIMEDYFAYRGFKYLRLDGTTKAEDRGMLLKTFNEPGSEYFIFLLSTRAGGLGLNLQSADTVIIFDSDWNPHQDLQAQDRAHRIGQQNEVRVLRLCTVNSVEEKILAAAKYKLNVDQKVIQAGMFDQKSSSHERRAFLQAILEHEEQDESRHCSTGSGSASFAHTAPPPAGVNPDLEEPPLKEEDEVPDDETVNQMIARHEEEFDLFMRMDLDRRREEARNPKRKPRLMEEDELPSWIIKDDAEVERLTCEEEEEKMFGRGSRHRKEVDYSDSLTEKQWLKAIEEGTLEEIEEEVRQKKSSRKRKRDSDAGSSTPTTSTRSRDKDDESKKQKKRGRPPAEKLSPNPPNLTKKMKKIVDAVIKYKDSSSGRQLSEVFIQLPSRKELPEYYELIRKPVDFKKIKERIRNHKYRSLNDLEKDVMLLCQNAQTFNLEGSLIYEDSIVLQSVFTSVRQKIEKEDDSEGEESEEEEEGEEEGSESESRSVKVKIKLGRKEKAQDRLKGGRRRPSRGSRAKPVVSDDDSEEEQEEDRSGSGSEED

For experiment [1], the target named is BRG1 (human (endogenous in MLS 402-91 and EWS TC-71)), P51532. Kind of experiment: affinity purification with mass spectrometry; BRG1 IP: biotinylated BRG1 antibody on streptavidin magnetic beads, 50 µg nuclear extract of MLS 402-91 or of EWS TC-71 cells, 150 mM KCl, 10 mM Tris pH 7.5, overnight at 4 °C; TMT quantitative mass spectrometry; hits > 1.5-fold over the IgG control. The settings on record: remark: other sources report otherwise.

Experiment [2] concerns the target BRG1 (human (endogenous in MLS 402-91 and EWS TC-71)) (UniProt P51532). Described as above.
For experiment [3], the target named is FUS::DDIT3 (human (endogenous in MLS 402-91)). Kind of experiment: affinity purification with mass spectrometry; DDIT3 IP (pulls down FUS::DDIT3): biotinylated DDIT3 antibody on streptavidin magnetic beads, 50 µg nuclear extract of MLS 402-91 cells, 150 mM KCl, 10 mM Tris pH 7.5, overnight at 4 °C; TMT quantitative mass spectrometry; hits > 1.5-fold over the IgG control.

These are yes or no findings as the source states them, for the method shown. Binding seen in cells or lysates may run through a third protein. Here binding means that the protein was enriched with, or labelled near, the bait; the list need not be complete.

B1: CTCF, P49711 1-727 (protein)
chain: MEGDAVEAIVEESETFIKGKERKTYQRRREGGQEEDACHLPQNQTDGGEVVQDVNSSVQMVMMEQLDPTLLQMKTEVMEGTVAPEAEAAVDDTQIITLQVVNMEEQPINIGELQLVQVPVPVTVPVATTSVEELQGAYENEVSKEGLAESEPMICHTLPLPEGFQVVKVGANGEVETLEQGELPPQEDPSWQKDPDYQPPAKKTKKTKKSKLRYTEEGKDVDVSVYDFEEEQQEGLLSEVNAEKVVGNMKPPKPTKIKKKGVKKTFQCELCSYTCPRRSNLDRHMKSHTDERPHKCHLCGRAFRTVTLLRNHLNTHTGTRPHKCPDCDMAFVTSGELVRHRRYKHTHEKPFKCSMCDYASVEVSKLKRHIRSHTGERPFQCSLCSYASRDTYKLKRHMRTHSGEKPYECYICHARFTQSGTMKMHILQKHTENVAKFHCPHCDTVIARKSDLGVHLRKQHSYIEQGKKCRYCDAVFHERYALIQHQKSHKNEKRFKCDQCDYACRQERHMIMHKRTHTGEKPYACSHCDKTFRQKQLLDMHFKRYHDPNFVPAAFVCSKCGKTFTRRNTMARHADNCAGPDGVEGENGGETKKSKRGRKRKMRSKKEDSSDSENAEPDLDDNEDEEEPAVEIEPEPEPQPVTPAPPPAKKRRGRPPGRTNQPKQNQPTAIIQVEDQNTGAIENIIVEVKKEPDAEPAEGEEEEAQPAATDAPNGDLTPEMILSMMDR
With B1, the binding entry in experiment [1] is listed as “binds”.

B2: ATF7 (protein, UniProt P17544 1-483)
chain: MGDDRPFVCNAPGCGQRFTNEDHLAVHKHKHEMTLKFGPARTDSVIIADQTPTPTRFLKNCEEVGLFNELASSFEHEFKKAADEDEKKAAAGPLDMSLPSTPDIKIKEEEPVEVDSSPPDSPASSPCSPPLKEKEVTPKPVLISTPTPTIVRPGSLPLHLGYDPLHPTLPSPTSVITQAPPSNRQMGSPTGSLPLVMHLANGQTMPVLPGPPVQMPSVISLARPVSMVPNIPGIPGPPVNSSGSISPSGHPIPSEAKMRLKATLTHQVSSINGGCGMVVGTASTMVTARPEQSQILIQHPDAPSPAQPQVSPAQPTPSTGGRRRRTVDEDPDERRQRFLERNRAAASRCRQKRKLWVSSLEKKAEELTSQNIQLSNEVTLLRNEVAQLKQLLLAHKDCPVTALQKKTQGYLESPKESSEPTGSPAPVIQHSSATAPSNGLSVRSAAEAVATSVLTQMASQRTELSMPIQSHVIMTPQSQSAGR
Regarding B2, the binding result in experiment [2] and in experiment [3] was “binds” throughout.
